{
  "source": "paper PMC12450638",
  "about": "(The Journal of Biological Chemistry, 2025)",
  "target": "T1, KP1 peptide (…)",
  "T1 sequence (peptide)": "NRFAGFGIGL",
  "assay": "crystal structure; B∗73:01/KP1 and KIR2DL2 purified separately by SEC in 10 mM Hepes, 150 mM NaCl, pH 7.2, mixed at 1:1 molar ratio, 6 to 10 mg/ml; crystals in Tris-HCl pH 8.75, 20% PEG 8000; 2.9 Å; both purified",
  "note": "These are yes or no findings as the source states them, for the method shown. Binding can be weak; no strength is given.",
  "data": [
    {"substance": "KIR2DL2∗001, soluble construct (residues 1-225 of the mature protein) (human) (receptor)", "values": [
      {"measurement": "binding", "value": "binds"}
    ]}
  ]
}
